Data as given in article PMC5988312.
No constants are given. Whether binding was seen depends on the method and setting. Binding seen in cells or lysates may run through a third protein. Some results given as binding are weak or reduced against the parent protein; the word gives no strength.

The chains behind the UniProt entries cited, without tags or fusion partners.
UniProt P04608: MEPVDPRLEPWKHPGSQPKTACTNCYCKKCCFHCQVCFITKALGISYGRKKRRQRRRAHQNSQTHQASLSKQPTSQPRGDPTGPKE

Target: HA-Tat (HIV-1 Tat, HA-tagged) (HIV-1) (UniProt P04608)
Assay: co-IP; co-immunoprecipitation with HA-Tat, immunoblot for SQSTM1/p62

Substance: SQSTM1/p62 (from UniProt Q13501 1-440)
- binding: binds
